Data as given in patent US9408910B2, “Anticancer prodrug activated by radiation or ultraviolet treatment and use thereof” (priority 2011, dated 2016).
Part of at least one peptide drawing is inferred or uncertain, most often the ends. Numbered stars: 1 amine (or outer) side, 2 acyl side, 3 side chain; on linkers, the order of the positions; unused ones are H or OH. Square brackets hold non-standard residues; d marks the D form. Peptide text beside a SMILES is read from it. * marks the point of attachment. Doxorubicin(3'-N) = COc1cccc2c1C(=O)c1c(O)c3c(c(O)c1C2=O)C[C@@](O)(C(=O)CO)C[C@@H]3O[C@H]1C[C@H](N*)[C@H](O)[C@H](C)O1; PABC = O=C(OCc1ccc(N[*:1])cc1)[*:2]

Test system: tumor mouse models transplanted with SCC 7 cell line
Settings: 5 Gy radiation, then 10 mg/kg i.v. every day for 3 days from 24 hrs after radiation; FIGS. 17a, 17b

COc1cccc2c1C(=O)c1c(O)c3c(c(O)c1C2=O)C[C@@](O)(C(=O)CO)C[C@@H]3O[C@H]1C[C@H](NC(=O)OCc2ccc(NC(=O)[C@H](CC(=O)O)NC(=O)[C@@H](NC(=O)[C@H](CCC(=O)O)NC(=O)[C@H](CC(=O)O)NC(=O)CNC(=O)[C@H](CCCCN)NC(C)=O)C(C)C)cc2)[C@H](O)[C@H](C)O1 [KGDEVD-DOX, Ac-Lys-Gly-Asp-Glu-Val-Asp-PABC-DOX] (Ac-KGDEVD[PABC]-{Doxorubicin(3'-N)})
antitumor therapeutic effect (tumor growth, survival rate): increased the antitumor therapeutic effect
